Laboratory results taken from PubChem BioAssay AID624291 (National Center for Advancing Translational Sciences (NCATS), 2012).
The campaign covered roughly 350,000 compounds. About 220 (0.063%) were called active. The shares of active, inactive and inconclusive entries below differ from those in the screen. Calls follow the shape of the dose curve; as a rule, active = well fitted activation curve with a large enough effect; inconclusive = small, poorly fitted or top-dose-only effect; inactive = no such curve, though single readings can be large or run the other way. Where the call is inconclusive, the potency comes from a doubtful curve fit.

Assay: qHTS for Activators of Integrin-Mediated Alleviation for Muscular Dystrophy; also: nearly all actives have a fitted effect of over 60% in size;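 as to activation: 100% = response of the positive control SU9516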
Conditions: alpha7betagal myoblasts, beta-gal FDG fluorescence, 48 h; activation: at 38.3 µM (top of the series)
Procedure, shortened: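 Alpha7betagal+/- myoblasts (passage 13) were plated 16-24 hr, then exposed to compounds (1:260 dilution of DMSO stock) for 48 hours at 37C. After MPER lysis, β-galactosidase reporter activity was read as FDG fluorescence (ex 480/em 540) after 30 minutes.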
Potency is read from the fitted curve at half-maximal effect.

| SMILES | Potency | activation |
| --- | --- | --- |
| O=C(C1=C(O)C(=O)N(CC2CCCO2)C1c1ccccc1Cl)c1ccco1 (centres undefined) | inconclusive: 4.47 µM [activator, single point] |  |
| O=C(NN1CCN(Cc2ccccc2)CC1)c1ccc(N2CCOCC2)c([N+](=O)[O-])c1 |  | inactive: -16.9% |
| Cc1ccc(-n2c(=S)sc3c(=O)n(-c4ccccc4F)c(SCC(=O)O)nc32)cc1C | inconclusive: 5.01 µM [activator, single point] |  |
| COc1cc(/C=C/C(=O)OCC(=O)Nc2ccccc2Cl)cc(OC)c1OC | inconclusive: 2.51 µM [activator, full curve, poor fit] |  |
| COC(CNC(=O)Cc1c(C)nc2c(-c3ccccc3)c(C)nn2c1C)OC | inconclusive: 3.16 µM [activator, single point] |  |
| O=C(NC1CCCCC1)c1ccccc1NC(=O)C1CC(=O)N(c2ccc(Cl)cc2)C1 (centres undefined) |  | inactive: 16.3% |
| Cc1cccc(NC(=O)C(Cc2ccccc2)c2nn[nH]n2)c1C (centres undefined) | inconclusive: 5.62 µM [activator, partial curve, poor fit] |  |
| CC1CCCN(S(=O)(=O)c2ccc(NC(=O)C3CCN(C(=O)C(C)(C)C)CC3)cc2)C1 (centres undefined) | inconclusive: 3.16 µM [activator, single point] |  |
| O=C(COc1ccccc1Cl)NCCC1=CCCCC1 | inconclusive: 1.41 µM [activator, partial curve, poor fit] |  |
| O=c1[nH]c2c(s1)C(c1ccccc1)C1C3CCC(C3)C1S2 (centres undefined) |  | inactive: -1.78% |
| CSc1nc(=O)n(-c2ccccc2)c(C)c1C(C)=O |  | inactive: 8.92% |
| CC1CCN(S(=O)(=O)c2ccc(S(=O)(=O)N3CCCC3)cc2)CC1 | active: 8.91 µM |  |
| O=C(c1ccc2c3n(nc2c1)-c1ccc(Cl)cc1CO3)N1CCOCC1 | inconclusive: 2.82 µM [activator, single point] |  |
| Cc1ccc(C(=O)NCc2nnc(SCC(=O)Nc3sc4c(c3C#N)CCCC4)n2C)cc1 |  | inactive: -16.8% |
| O=c1[nH]oc(O)c1-c1ncc(C(F)(F)F)cc1Cl | inconclusive: 25.1 µM [activator, partial curve, poor fit] |  |
| Cn1nc2c3ccccc3n(Cc3ccccc3)c2nc1=S | inconclusive: 0.447 µM [activator, full curve, poor fit] |  |
| COc1cccc(CN2CCNC(=O)C2CC(=O)N(C)Cc2cnccn2)c1OC (centres undefined) | inconclusive: 0.891 µM [activator, full curve, poor fit] |  |
| Cn1cc(S(=O)(=O)c2ccccc2)c(=O)c2cc(F)c(N3CCOCC3)cc21 | inconclusive: 0.708 µM [activator, partial curve, poor fit] |  |
| CCN(CC(=O)Nc1ccccc1C(F)(F)F)C(=O)c1ccc2[nH]c3c(c2c1)CC(C)CC3 (centres undefined) |  | inactive: -21.1% |
| COc1ccc(-c2cc(C(=O)Nc3c(Cl)cc(Cl)cc3Cl)c3ccccc3n2)cc1OC |  | inactive: 40.8% |
| COC(=O)c1c(-c2ccc(C)cc2)csc1NC(=O)C1CC=CCC1C(=O)O (centres undefined) | inconclusive: 28.2 µM [activator, single point] |  |
| COc1cc(C2c3cc4c(cc3OC(NNC(N)=S)C2C)OCO4)cc(OC)c1OC (centres undefined) |  | inactive: 5.82% |
| CC(=O)N1CCN(c2ccc(NC(=O)c3ccco3)cc2Cl)CC1 |  | inactive: 3.84% |

| SMILES | Potency | activation |
| --- | --- | --- |
| CN(Cc1ccccc1)C(=O)COC(=O)C1CCN(S(=O)(=O)c2cccs2)CC1 | inconclusive: 5.01 µM [activator, single point] |  |
| Brc1ccc(/C=N/Nc2ccccn2)cc1 | inconclusive: 28.2 µM [activator, single point] |  |
| CCN(CC)C(CNS(=O)(=O)c1ccc(Cl)cc1)c1ccccc1 (centres undefined) | inconclusive: 15.8 µM [activator, single point] |  |
| CCOc1ncccc1C(=O)Nc1cc(S(=O)(=O)N2CCCCC2)ccc1Cl |  | inactive: 10.5% |
| Cc1ccc(C(=O)NNC(=O)c2ccc(S(=O)(=O)N3CCCCC3)cc2)cc1 |  | inconclusive: -38.4% [activator] |
| Cc1cccc(NC(=O)CN2C(=O)S/C(=C\c3ccc(-c4cccc(C(=O)O)c4C)o3)C2=O)c1 | inconclusive: 31.6 µM [activator, single point] |  |
| O=[N+]([O-])c1ccc(N/N=C/c2cccs2)nc1 |  | inactive: 15.2% |
| COC(=O)c1ccc(C(=O)NC(=S)Nc2nc3c(s2)CC(C)CC3)cc1 (centres undefined) |  | inactive: 31% |
| CCOC(=O)Cn1ccc(-c2ccccc2)c(C#N)c1=O | inconclusive: 5.01 µM [activator, full curve, poor fit] |  |
| COc1cccc(CCNC(=O)C2CCC(=O)N(Cc3cccc(OC)c3)C2)c1 (centres undefined) | inconclusive: 5.01 µM [activator, single point] |  |
| Cc1ccc(S(=O)(=O)NCc2cccnc2)cc1C(=O)N1CCCC1 |  | inactive: 13.2% |
| Cc1cc(C)cc(NC(=S)N2CCN(S(=O)(=O)c3ccccc3)CC2)c1 | inconclusive: 4.47 µM [activator, single point] |  |
| C#CCOc1coc(COC(=O)c2ccccc2)cc1=O | inconclusive: 5.01 µM [activator, single point] |  |
| CCCCC(=O)N=c1sc2c(OC)ccc(OC)c2n1C | inconclusive: 3.55 µM [activator, partial curve, poor fit] |  |
| Cc1ccc(C)c(NC(=O)C2CCCN(c3cnccn3)C2)c1 (centres undefined) |  | inactive: -5.06% |
| Cn1c(=O)c2c(nc(Oc3ccccc3N)n2C)n(C)c1=O | inconclusive: 3.55 µM [activator, single point] |  |
| CC(=O)N1CCCN(C(=O)c2ccc3nc(Cc4cccc(Cl)c4)oc3c2)CC1 | inconclusive: 12.6 µM [activator, partial curve, poor fit] |  |
| CCOc1ccc(NC(=O)CCC(=O)Nc2nnc(CC)s2)cc1 | inconclusive: 28.2 µM [activator, single point] |  |
| CCOc1ccc(S(=O)(=O)NCC(c2ccc3c(c2)OCO3)N2CCN(C)CC2)cc1 (centres undefined) | inconclusive: 5.01 µM [activator, single point] |  |
| Cc1ccc(CCNC(=O)CCn2c(=O)c3cccn3c3ccc(F)cc32)cc1 | inconclusive: 20 µM [activator, single point] |  |
| CCOC(=O)CNC(=O)CN1CCCN(S(=O)(=O)c2ccc(Br)s2)CC1 |  | inactive: -17% |
| CN1CCN(C(=O)CCNC(=O)Cn2cnc3ccccc3c2=O)CC1 | inconclusive: 3.16 µM [activator, single point] |  |
| Cc1ccc(N2CN(CCC3=CCCCC3)CNC2=S)cc1 |  | inactive: 16.2% |

Filtered by structure: those above containing a furan ring, fused or not

| SMILES | Potency | activation |
| --- | --- | --- |
| O=C(C1=C(O)C(=O)N(CC2CCCO2)C1c1ccccc1Cl)c1ccco1 (centres undefined) | inconclusive: 4.47 µM [activator, single point] |  |
| CC(=O)N1CCN(c2ccc(NC(=O)c3ccco3)cc2Cl)CC1 |  | inactive: 3.84% |
| Cc1cccc(NC(=O)CN2C(=O)S/C(=C\c3ccc(-c4cccc(C(=O)O)c4C)o3)C2=O)c1 | inconclusive: 31.6 µM [activator, single point] |  |

(continued)

| SMILES | Potency | activation |
| --- | --- | --- |
| c1ccc(CCSc2nccn2-c2ccccc2)cc1 |  | inactive: 0.564% |
| COc1ccc(C(=O)NC(=S)Nc2ccc(CN3CCOCC3)cc2)cc1OC |  | inactive: 1.3% |
| Clc1cccc(NC2=NCCC2)c1 | inconclusive: 7.94 µM [activator, partial curve] |  |
| CCn1c(SCC(=O)Nc2ccc(N3CCOCC3)cc2)nnc1-c1ccncc1 | inconclusive: 3.55 µM [activator, single point] |  |
| CC1(C)CC(NC(=O)CCc2nnc(CCCCc3ccccc3)o2)CCO1 (centres undefined) | inconclusive: 2.51 µM [activator, single point] |  |
| CC12CN3CC(C)(CN(C1)C3c1ccc(F)cc1)C2 (centres undefined) | inconclusive: 28.2 µM [activator, single point] |  |
| CC(=O)c1cccc(NC(=O)C2CCCN(S(=O)(=O)c3cccc4nonc34)C2)c1 (centres undefined) | inconclusive: 7.94 µM [activator, partial curve] |  |
| O=C(COc1ccccc1Cl)NC(=S)Nc1ccccc1N1CCCC1 | inconclusive: 3.55 µM [activator, partial curve, poor fit] |  |
| Cc1c(NC(=O)Nc2ccccc2Cl)c(=O)n(-c2ccccc2)n1C | inconclusive: 3.55 µM [activator, single point] |  |
| Cc1cc2c(n1-c1ccc(Br)cc1)CC(C)(C)CC2=O |  | inactive: 15.1% |
| Cc1cccc(N2CCN(CC3CCCCC3)CC2)c1C |  | inactive: -20.7% |
| Cc1cccc(-n2nc3c(c2NC(=O)c2ccco2)CSC3)c1C | inconclusive: 2.82 µM [activator, single point] |  |
| Cc1ccc(S(=O)(=O)N/N=C2/CC(c3ccccc3)Oc3ccccc32)cc1 (centres undefined) | inconclusive: 12.6 µM [activator, partial curve, poor fit] |  |
| CC1=NOC(=O)/C1=C\c1ccc(-c2ccc(Cl)c(C(=O)O)c2)o1 | inconclusive: 28.2 µM [activator, single point] |  |
| O=C(Nc1ccc([N+](=O)[O-])cc1)Nc1cnccn1 | inconclusive: 28.2 µM [activator, single point] |  |
| CCOc1ccc(CCNC(=O)c2cc(-c3ccccc3)c(N3CCOCC3)s2)cc1OCC | inconclusive: 1.58 µM [activator, partial curve, poor fit] |  |
| S=C(NCc1ccc2c(c1)OCO2)NCc1ccc2c(c1)OCO2 |  | inactive: -13.9% |
| CCOc1ccc(NC(=O)N2CCN(Cc3ccc4c(c3)OCO4)CC2)cc1 | inconclusive: 3.16 µM [activator, single point] |  |
| Cc1cccc(C)c1Nc1ncnc(N)c1[N+](=O)[O-] |  | inactive: -11.5% |
| CC1CCCC(C)N1C(=O)COC(=O)c1ccc(O)cc1 (centres undefined) | inconclusive: 28.2 µM [activator, single point] |  |
| O=C(NC1CCN(Cc2ccccc2)CC1)c1c(Cl)cccc1Cl | inconclusive: 28.2 µM [activator, single point] |  |
| O=C(N/N=C/c1ccc(OCC(=O)N2CCCC2)cc1)C(=O)NC1CC1 | inconclusive: 2.51 µM [activator, single point] |  |
| CC(C)C(NC(=O)Cc1ccccc1)C(=O)N1CCN(c2cccc(Cl)c2)CC1 (centres undefined) | inconclusive: 5.01 µM [activator, single point] |  |
